According to PubChem BioAssay AID1259415 (National Center for Advancing Translational Sciences (NCATS), 2018):
Where “and” joins values, the source holds several entries; their conditions need not be identical. Equal entries are not always repeated. Among all 410,000 compounds or so, about 18,000 (4.4%) were called active. The inconclusive results got no clear call from the source; some entries with a clear call stand among them for comparison. Cut-off read from the data, not from the text of the source: active = activity change below about -60%; inconclusive = no clear call, values can overlap the other calls; inactive = above about -39%.

Assay: qHTS Assay for inhibitors of the human cytomegalovirus (HCMV)
Settings: HFF cells, HCMV-luciferase reporter, 72 h; at 57.5 µM; active compounds read low
In short: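 Inhibition of viral replication was scored as loss of reporter luminescence in HFFs infected with HCMV-luciferase (MOI 1 PFU/cell) for 72 h; compounds tested at 2 doses, normalized to buffer and Salinomycin controls.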
% is set by controls: 0 for no effect and ±100 for the full control effect.

Row | Compound | activity change, negative = inhibition
1 | Cn1c(SCC(N)=O)nnc1-c1ccc(C(C)(C)C)cc1 | inconclusive: -51.5%
2 | COc1ccccc1C(=O)NC(=S)/C=C1/N(C)c2ccccc2C1(C)C | active: -91.9%
3 | CC(=O)n1c(C=Nc2ccc(Cl)cc2)c(O)c2ccccc21 | inconclusive: 0%
4 | O=C(CN1CCN(C(=O)C2CCCO2)CC1)Nc1ccc(Cl)cc1 (configuration not stated) | inactive: -29.4%
5 | CC1CC(C)CN(CC(O)COc2ccc3c(c2)CCC3)C1 (configuration not stated) | inconclusive: -49.3%
6 | Cc1cccc(N=C2NC(=O)/C(=C/c3cn(C)c4ccccc34)S2)c1 | active: -80%
7 | CC1(C(=O)NS(=O)(=O)Cc2ccccc2)CCN1C(=O)Cc1ccccc1Cl (configuration not stated) | active: -62.3%
8 | O=C(CSCc1nc2cccnc2n1C1CCCCC1)NCc1cccc(Cl)c1 | inconclusive: -41.3%
9 | Cc1cc(N2C(=O)c3ccc(C(=O)Nc4ccc(O)cc4C(=O)O)cc3C2=O)no1 | inconclusive: -50.7%
10 | O=C(Cn1c(C(F)(F)F)nc2ccccc21)c1ccc(Br)cc1 | inconclusive: -44.4%
11 | COc1ccc(Cl)cc1NC(=O)c1cccc(-n2cnnn2)c1 | active: -63.3%
12 | Cc1ccc(CNC(=O)c2nn(C)c3c2CS(=O)(=O)c2ccccc2-3)cc1 | inactive: -25.1% and inactive: -19%
13 | O=c1ccc(-c2ccc(S(=O)(=O)Nc3cccc(Br)c3)o2)n[nH]1 | inconclusive: -44.7%
14 | CN(CCC#N)CC(=O)Nc1ccc(S(N)(=O)=O)cc1 | inconclusive: -49.8%
15 | O=C(O)/C(=C\c1ccco1)NC(=O)c1ccccc1 | inconclusive: -42.7%
16 | Cc1ccc(S(=O)(=O)N2CCN(CCC#N)CC2)cc1 | inconclusive: -48.8%
17 | O=S(=O)(Nc1ccc(N2CCOCC2)cc1)c1ccc(F)cc1F | inconclusive: -44%
18 | Cc1ccc(NC(=O)C2CCN(c3ncnc4c3nc3n4CCCCC3)CC2)nc1 | active: -91.4%
19 | C/C(=N\OCc1ccc(C#N)cc1)c1ccc(S(=O)(=O)N(C)C)cc1 | inconclusive: -41.6%

Row | Compound | activity change, negative = inhibition
20 | Cc1ccccc1OCCOc1ccc([N+](=O)[O-])cc1/C=N/n1cnnc1 | active: -98.2%
21 | CC1(C)CC(=O)C2=C(C1)Oc1ncn(CCCO)c(=N)c1C2c1ccccc1 (configuration not stated) | inconclusive: -42.9%
22 | CCCC1=Nc2cc(C(=O)NCCc3ccc(OC)cc3OC)ccc2Sc2ccccc21 | inconclusive: -58%
23 | CCCS(=O)(=O)NC(=O)C1(C)CCCN(C(=O)c2ccccc2F)C1 (configuration not stated) | inconclusive: -46.2%
24 | CC1CCC(C(C)C)C(OCC[N+](C)(C)C)C1 (configuration not stated) | inconclusive: -44.4%
25 | CCOC(=O)Cc1nnc(NC(=O)CSc2ccc(Cl)cc2)s1 | inactive: 4.18%
26 | CCS(=O)(=O)N1CCc2cc(C(=O)NCc3ccccc3)ccc21 | inactive: 6.48%
27 | Cc1ccc(-c2nc3nc(C)cc(Nc4ccccc4O)n3n2)cc1 | inconclusive: -58.8%
28 | COc1cc(S(=O)(=O)N(C)Cc2ccc3c(c2)OCCO3)ccc1NC(C)=O | inconclusive: -45.4%
29 | CCOc1ccccc1NC(=O)Nc1cnccn1 | inconclusive: -57.8%
30 | C(=C\c1ccccc1)/CSc1nnc(-c2ccccc2)n1Cc1ccco1 | inconclusive: -52.4%
31 | C[C@@H](NC(=O)c1nc[nH]c1C(=O)N[C@@H](Cc1ccccc1)C(=O)OC(C)(C)C)c1ccccc1 | inactive: -9.19%
32 | CCOc1ccc(N(C)S(=O)(=O)c2cc(-c3cc(C)no3)ccc2CC)cc1 | active: -90%
33 | Cc1cccc(N2C(=O)c3cccc4c(N)ccc(c34)C2=O)c1 | inconclusive: -41.3%
34 | Cc1ccc(NC(=O)c2sc3ncnc(N4CCN(c5ccccn5)CC4)c3c2C)c(C)c1 | inconclusive: -51.4%
35 | COc1ccc(NC(=O)Cn2c(=O)oc3cc(S(=O)(=O)N4CCCC4)ccc32)cc1 | inconclusive: -50.1%
36 | Cc1nc(-c2ccc3c(c2)OCCO3)cs1 | inactive: -5.24%
37 | Cc1ccc(CNC(=O)C2CCC(CNc3nc(=S)[nH]c4ccccc34)CC2)cc1 (configuration not stated) | inactive: -17.2%
38 | Cc1nn2c(NCc3ccccn3)cc(C(C)(C)C)nc2c1-c1ccccc1 | active: -97%

Row | Compound | activity change, negative = inhibition
39 | Cc1ccc(C)c(S(=O)(=O)Nc2cc(C)on2)c1 | inconclusive: -42.3%
40 | O=C(NC(=S)NN1CCCCC1c1cccnc1)c1ccc(Cl)cc1Cl (configuration not stated) | inconclusive: -58%
41 | O=S(=O)(CCc1nnc(-c2ccc(Br)cc2)o1)c1ccc(Cl)cc1 | inconclusive: -59.4%
42 | Nn1c(Cc2ccccc2)nnc1Cc1ccccc1 | inconclusive: -40.6%
43 | COc1ccc(OC)c(C2C(C(=O)Nc3ccccc3OC)=C(C)Nc3c(C(=O)Nc4ccc(F)cc4)cnn32)c1 (configuration not stated) | inconclusive: -51.5%
44 | CCOc1ccc(C(=O)N2CCN(c3ncccn3)CC2)cc1 | inconclusive: -52.3%
45 | O=C(c1cccc(F)c1)N1CCC(c2nc3ccccc3s2)CC1 | inactive: -23.7%
46 | Cn1c(=O)c2c(nc(CN3CCc4ccccc4C3)n2Cc2ccccc2F)n(C)c1=O | inconclusive: -43.4%
47 | Cc1cccc(C(=O)NC(=S)NCc2ccccc2)c1 | inconclusive: -42.6%
48 | Cn1c(NC(=O)c2ccc(C(C)(C)C)cc2)cc(=O)n(C)c1=O | inconclusive: -40.7%
49 | CSc1ncccc1C(=O)Nc1nc2ccc(F)cc2s1 | inconclusive: -58.8%
50 | Cc1ccccc1NC(=O)CSc1nc(COc2ccccc2)nc2ccccc12 | inconclusive: -47.4%
51 | CC(C)(C)C(=O)Nc1cc2nn(-c3ccccc3)nc2cc1Cl | active: -87.8%
52 | Cc1ccc(NC(=O)c2nnn(-c3ccc4c(c3)OCCO4)c2N)cc1 | inconclusive: -42.5%
53 | CCc1ccccc1Nc1cc(C(=O)NC2CCC(C)CC2)c2ccccc2n1 (configuration not stated) | active: -82.3%
54 | Cc1ccc(S(=O)(=O)NCC(=O)N(CC(=O)NC2CCCC2)c2ccc3c(c2)OCCO3)cc1 | inactive: 40.5%
55 | C=CCn1c(SC(C)C(=O)Nc2ccc(F)c(F)c2F)nnc1C1CC1 (configuration not stated) | inconclusive: -45.3%
56 | Cc1nc(-c2c(-c3ccc(O)cc3O)noc2C(F)(F)F)cs1 | active: -67%
57 | OCCC1CN(Cc2ccc3c(c2)CCO3)CCN1C1CCCC1 (configuration not stated) | active: -74.1%

Looked up above.
`CC1(C)CC(=O)C2=C(C1)Oc1ncn(CCCO)c(=N)c1C2c1ccccc1` (configuration not stated) | activity change, negative = inhibition: inconclusive: -42.9%
`Cc1cccc(N=C2NC(=O)/C(=C/c3cn(C)c4ccccc34)S2)c1` | activity change, negative = inhibition: active: -80%
`CC1CC(C)CN(CC(O)COc2ccc3c(c2)CCC3)C1` (configuration not stated) | activity change, negative = inhibition: inconclusive: -49.3%
